Measurements reported in patent US7875634B2, “Cyano anthranilamide insecticides” (E. I. du Pont de Nemours and Company, priority 2003, dated 2011).
Some results were stated once for a whole list of compounds, not compound by compound. For at least one compound, name, drawing or mass did not settle the structure.

Assays:
[1] = system: diamondback moth (Plutella xylostella); assay: Test A: control of diamondback moth, foliar spray on radish plant; assay type: in vivo; conditions: sprayed at 50 ppm, 6 days, visual assessment of foliage consumed
[2] = system: fall armyworm (Spodopiera frugiperda); assay: Test B: control of fall armyworm, foliar spray on corn plant; assay type: in vivo; conditions: sprayed at 50 ppm, 6 days, visual rating

`CCNC(=O)c1cc(C#N)cc(C)c1NC(=O)c1cc(C(F)(F)F)nn1-c1ncccc1Cl` [Compound 32] was tested, and the “feeding damage (very good to excellent levels of plant protection)” value [1] was no more than 20% and the “feeding damage (excellent levels of plant protection)” value [2] was no more than 20%.
With `CCNC(=O)c1cc(C#N)cc(C)c1NC(=O)c1cc(Cl)nn1-c1ncccc1Cl` [Compound 33] the “feeding damage (very good to excellent levels of plant protection)” value [1] was no more than 20% and the “feeding damage (excellent levels of plant protection)” value [2] was no more than 20%.
With `Cc1cc(C#N)cc(C(=O)NC(C)(C)C)c1NC(=O)c1cc(Cl)nn1-c1ncccc1Cl` [Compound 34] the “feeding damage (very good to excellent levels of plant protection)” value [1] was no more than 20% and the “feeding damage (excellent levels of plant protection)” value [2] was no more than 20%.
`CCNC(=O)c1cc(C#N)cc(C)c1NC(=O)c1cc(Br)nn1-c1ncccc1Cl` [Compound 35] was tested, and the “feeding damage (very good to excellent levels of plant protection)” value [1] was no more than 20% and the “feeding damage (excellent levels of plant protection)” value [2] was no more than 20%.
With `Cc1cc(C#N)cc(C(=O)NC(C)(C)C)c1NC(=O)c1cc(Br)nn1-c1ncccc1Cl` [Compound 36] the “feeding damage (very good to excellent levels of plant protection)” value [1] was no more than 20% and the “feeding damage (excellent levels of plant protection)” value [2] was no more than 20%.
In the case of `CSCC(C)NC(=O)c1cc(C#N)cc(C)c1NC(=O)c1cc(C(F)(F)F)nn1-c1ncccc1Cl` (centres unmarked) [Compound 37], the “feeding damage (very good to excellent levels of plant protection)” value [1] is reported as no more than 20% and the “feeding damage (excellent levels of plant protection)” value [2] is reported as no more than 20%.
`Cc1cc(C#N)cc(C(=O)N(C)C)c1NC(=O)c1cc(Br)nn1-c1ncccc1Cl` [Compound 39] was tested, and the “feeding damage (very good to excellent levels of plant protection)” value [1] was no more than 20% and the “feeding damage (excellent levels of plant protection)” value [2] was no more than 20%.
In the case of `Cc1cc(C#N)cc(C(=O)NC(C)C)c1NC(=O)c1cc(OCC(F)(F)F)nn1-c1ncccc1Cl` [Compound 40], the “feeding damage (very good to excellent levels of plant protection)” value [1] is reported as no more than 20% and the “feeding damage (excellent levels of plant protection)” value [2] is reported as no more than 20%.
`Cc1cc(C#N)cc(C(=O)NC(C)(C)C)c1NC(=O)c1cc(OCC(F)(F)F)nn1-c1ncccc1Cl` [Compound 41] was tested, and the “feeding damage (very good to excellent levels of plant protection)” value [1] was no more than 20% and the “feeding damage (excellent levels of plant protection)” value [2] was no more than 20%.
With `CCNC(=O)c1cc(C#N)cc(C)c1NC(=O)c1cc(OCC(F)(F)F)nn1-c1ncccc1Cl` [Compound 43] the “feeding damage (very good to excellent levels of plant protection)” value [1] was no more than 20% and the “feeding damage (excellent levels of plant protection)” value [2] was no more than 20%.
`Cc1cc(C#N)cc(C(=O)NCC#N)c1NC(=O)c1cc(OCC(F)(F)F)nn1-c1ncccc1Cl` [Compound 44] was tested, and the “feeding damage (very good to excellent levels of plant protection)” value [1] was no more than 20% and the “feeding damage (excellent levels of plant protection)” value [2] was no more than 20%.
In the case of `Cc1cc(C#N)cc(C(=O)N(C)C)c1NC(=O)c1cc(Cl)nn1-c1ncccc1Cl` [Compound 45], the “feeding damage (very good to excellent levels of plant protection)” value [1] is reported as no more than 20% and the “feeding damage (excellent levels of plant protection)” value [2] is reported as no more than 20%.
With `CSCC(C)NC(=O)c1cc(C#N)cc(C)c1NC(=O)c1cc(Br)nn1-c1ncccc1Cl` (centres unmarked) [Compound 63] the “feeding damage (very good to excellent levels of plant protection)” value [1] was no more than 20% and the “feeding damage (excellent levels of plant protection)” value [2] was no more than 20%.
`CSCC(C)NC(=O)c1cc(C#N)cc(C)c1NC(=O)c1cc(Cl)nn1-c1ncccc1Cl` (centres unmarked) [Compound 64] was tested, and the “feeding damage (very good to excellent levels of plant protection)” value [1] was no more than 20% and the “feeding damage (excellent levels of plant protection)” value [2] was no more than 20%.
For `CSCC(C)(C)NC(=O)c1cc(C#N)cc(C)c1NC(=O)c1cc(Br)nn1-c1ncccc1Cl` [Compound 65], the “feeding damage (very good to excellent levels of plant protection)” value [1] was no more than 20% and the “feeding damage (excellent levels of plant protection)” value [2] was no more than 20%.
With `CSCC(C)(C)NC(=O)c1cc(C#N)cc(C)c1NC(=O)c1cc(C(F)(F)F)nn1-c1ncccc1Cl` [Compound 66] the “feeding damage (very good to excellent levels of plant protection)” value [1] was no more than 20% and the “feeding damage (excellent levels of plant protection)” value [2] was no more than 20%.
For `CSCC(C)(C)NC(=O)c1cc(C#N)cc(C)c1NC(=O)c1cc(Cl)nn1-c1ncccc1Cl` [Compound 67], the “feeding damage (very good to excellent levels of plant protection)” value [1] was no more than 20% and the “feeding damage (excellent levels of plant protection)” value [2] was no more than 20%.
In the case of `Cc1cc(C#N)cc(C(=O)NC2CC2)c1NC(=O)c1cc(C(F)(F)F)nn1-c1ncccc1Cl` [Compound 68], the “feeding damage (very good to excellent levels of plant protection)” value [1] is reported as no more than 20% and the “feeding damage (excellent levels of plant protection)” value [2] is reported as no more than 20%.
For `Cc1cc(C#N)cc(C(=O)NC2CC2)c1NC(=O)c1cc(Cl)nn1-c1ncccc1Cl` [Compound 70], the “feeding damage (very good to excellent levels of plant protection)” value [1] was no more than 20% and the “feeding damage (excellent levels of plant protection)” value [2] was no more than 20%.
